These are yes or no findings as the source states them, for the method shown. Binding seen in cells or lysates may run through a third protein. Some entries that bind do so weakly or less than the wild type.
Columns and labels:
Test in all cases: co-immunoprecipitation with anti-FGFR3 (C-15) from stable U2OS cell lysates, plus immuno-colocalization
[1] = biological target: HYP FGFR3 (human FGFR3 N540K) (human) (UniProt P22607)
[2] = biological target: ACH FGFR3 (human FGFR3 G380R) (human) (UniProt P22607)
[3] = biological target: TDII FGFR3 (human FGFR3 K650E) (human) (UniProt P22607)

binding [1]: binds
binding [2]: binds
binding [3]: binds
Substance: SH2(SH2B)-RrGFP fusion protein (from UniProt Q9NRF2 511-632)

— US20230243810A1
